Source: the supplement of paper PMC6078165
The reference is the same well before dosing, and untreated signal decays as well.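 The tumor cells are basal-like or mesenchymal-like triple-negative breast cancer lines cultured without fibroblasts. Reduced red signal indicates lost mitochondrial integrity, serving as a proxy for apoptotic death.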

How the values were obtained:
Assay in all cases: relative JC-1 red fluorescence (viability) vs pre-drug, monoculture (fraction); higher = more viable cancer cells
Settings in all cases: coculture fibroblast: none (monoculture)
[1] = test system: BT20
Description: (§1)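 JC-1 labelled TNBC cells grown in monoculture (density kept equal with unlabelled cancer cells) in 384-well plates in FluoroBrite medium, treated with one of 42 anticancer drugs at 0.1, 1, 10 or 100 uM. JC-1 red fluorescence (mitochondrial integrity, surrogate of apoptotic death) was read by plate reader every 8 h for 72 h. Values are normalised to each well's pre-drug value, with background from alamethicin. The stock of one drug was tenfold lower, so its dose labels may be too high. Monoculture values are repeated alongside each fibroblast plate and are averaged here.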

[2] = test system: Hs578T
Description: as §1

[3] = test system: MDAMB231
Description: as §1

[4] = test system: MDAMB468
Description: as §1

O=NN(CCCl)C(=O)NCCCl [Carmustine]
relative JC-1 red fluorescence
Settings | 8 h | 16 h | 24 h | 32 h | 40 h | 48 h | 56 h | 64 h | 72 h
[1], 0.1 µM | 0.93691 | 0.8331 | 0.764 | 0.692 | 0.633 | 0.613 | 0.585 | 0.574 | 0.568
[1], 1 µM | 0.8935 | 0.7894 | 0.755 | 0.677 | 0.63 | 0.605 | 0.574 | 0.56 | 0.541
[1], 10 µM | 0.9491 | 0.852 | 0.812 | 0.752 | 0.72 | 0.702 | 0.668 | 0.654 | 0.645
[1], 100 µM | 0.896 | 0.864 | 0.889 | 0.833 | 0.827 | 0.828 | 0.82 | 0.823 | 0.835
[2], 0.1 µM | 0.83 | 0.7238 | 0.651 | 0.594 | 0.541 | 0.523 | 0.493 | 0.492 | 0.483
[2], 1 µM | 0.757 | 0.644 | 0.643 | 0.572 | 0.543 | 0.528 | 0.509 | 0.52 | 0.524
[2], 10 µM | 0.843 | 0.741 | 0.64 | 0.593 | 0.537 | 0.506 | 0.471 | 0.445 | 0.427
[2], 100 µM | 0.7375 | 0.666 | 0.652 | 0.58 | 0.543 | 0.531 | 0.52 | 0.533 | 0.536
[3], 0.1 µM | 0.693 | 0.66 | 0.5773 | 0.555 | 0.501 | 0.479 | 0.4421 | 0.4501 | 0.4365
[3], 1 µM | 0.6968 | 0.6485 | 0.6234 | 0.566 | 0.525 | 0.513 | 0.49 | 0.509 | 0.5103
[3], 10 µM | 0.736 | 0.718 | 0.612 | 0.606 | 0.567 | 0.553 | 0.518 | 0.531 | 0.529
[3], 100 µM | 0.6569 | 0.641 | 0.597 | 0.5653 | 0.519 | 0.497 | 0.473 | 0.499 | 0.512
[4], 0.1 µM | 0.898 | 0.835 | 0.764 | 0.717 | 0.671 | 0.647 | 0.608 | 0.586 | 0.579
[4], 1 µM | 0.8884 | 0.773 | 0.79254 | 0.756 | 0.72 | 0.718 | 0.708 | 0.706 | 0.685
[4], 10 µM | 0.89 | 0.831 | 0.777 | 0.7149 | 0.678 | 0.66 | 0.629 | 0.605 | 0.59
[4], 100 µM | 0.846 | 0.828 | 0.828 | 0.779 | 0.763 | 0.763 | 0.734 | 0.734 | 0.723

Nc1ncn([C@@H]2O[C@H](CO)[C@@H](O)[C@H]2O)c(=O)n1 [Azacitidine]
relative JC-1 red fluorescence
Settings | 8 h | 16 h | 24 h | 32 h | 40 h | 48 h | 56 h | 64 h | 72 h
[1], 0.1 µM | 0.92 | 0.863 | 0.853 | 0.789 | 0.766 | 0.756 | 0.744 | 0.75 | 0.745
[1], 1 µM | 0.9351 | 0.846 | 0.8071 | 0.7333 | 0.695 | 0.6768 | 0.6618 | 0.645 | 0.638
[1], 10 µM | 0.9549 | 0.859 | 0.842 | 0.781 | 0.752 | 0.727 | 0.689 | 0.67 | 0.654
[1], 100 µM | 0.941 | 0.826 | 0.784 | 0.732 | 0.723 | 0.702 | 0.689 | 0.678 | 0.666
[2], 0.1 µM | 0.821 | 0.693 | 0.6226 | 0.549 | 0.489 | 0.457 | 0.424 | 0.418 | 0.406
[2], 1 µM | 0.837 | 0.707 | 0.665 | 0.604 | 0.567 | 0.542 | 0.526 | 0.53 | 0.524
[2], 10 µM | 0.874 | 0.6987 | 0.738 | 0.6586 | 0.635 | 0.636 | 0.623 | 0.634 | 0.636
[2], 100 µM | 0.863 | 0.706 | 0.715 | 0.631 | 0.611 | 0.587 | 0.559 | 0.572 | 0.565
[3], 0.1 µM | 0.738 | 0.688 | 0.772 | 0.662 | 0.632 | 0.664 | 0.652 | 0.713 | 0.726
[3], 1 µM | 0.739 | 0.6974 | 0.684 | 0.636 | 0.599 | 0.601 | 0.58 | 0.618 | 0.615
[3], 10 µM | 0.819 | 0.702 | 0.838 | 0.727 | 0.707 | 0.716 | 0.717 | 0.772 | 0.781
[3], 100 µM | 0.7204 | 0.723 | 0.621 | 0.687 | 0.651 | 0.615 | 0.584 | 0.584 | 0.564
[4], 0.1 µM | 0.8012 | 0.7817 | 0.795 | 0.764 | 0.743 | 0.757 | 0.755 | 0.757 | 0.768
[4], 1 µM | 0.913 | 0.844 | 0.783 | 0.721 | 0.673 | 0.655 | 0.631 | 0.61 | 0.602
[4], 10 µM | 0.832 | 0.7075 | 0.675 | 0.612 | 0.583 | 0.563 | 0.519 | 0.511 | 0.505
[4], 100 µM | 0.854 | 0.7481 | 0.644 | 0.549 | 0.5079 | 0.479 | 0.4454 | 0.406 | 0.387
